Out of some 320,000 compounds screened, about 22,000 (6.9%) were called active. Inconclusive means that the source gave no clear call. Such entries were picked first, then a sample of the others. Calls come from the whole dose curve; as a rule, active = well fitted inhibition curve with a large enough effect; inconclusive = small, poorly fitted or top-dose-only effect, or another doubt; inactive = no such curve, though single readings can be large or run the other way. Potencies beside an inconclusive call are fits to weak or partial responses and may not hold up.
Assay: Primary qHTS for delayed death inhibitors of the malarial parasite plastid, 96 hour incubation
Conditions: P. falciparum luciferase reporter growth; series mostly up to 28.7 µM; activity change, negative = inhibition: at the top concentration
Outline: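 Luminescence readout: decreased luciferase signal marks inhibited growth of reporter-expressing P. falciparum in infected red cells (2% hematocrit, 0.05% parasitemia final), exposed to compound two generations (96 h, 37 C, 5% CO2).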
In the case of `O=C(CN(c1ccc(F)cc1)S(=O)(=O)c1ccc2c(c1)OCCO2)NCc1ccccc1`, the Potency is reported as inconclusive: 2.08 µM [inhibitor, partial curve, poor fit].
In the case of `CCOC(=O)C1(Cc2cccc(Cl)c2)CCCN(C(=O)CCC(=O)N(C)C)C1` (stereo not drawn), the Potency is reported as inconclusive: 18.5 µM [inhibitor, partial curve, poor fit].
With `O=C1C(Cl)=C(N2CCOCC2)C(=O)N1c1cccc(Cl)c1` the “activity change, negative = inhibition” value was inactive: -5.71%.
For `Cc1ccc(CN2CCN(/N=C/c3cc(Br)ccc3F)CC2)cc1`, the Potency was inconclusive: 2.62 µM [inhibitor, full curve, poor fit].
With `CCCCCN1C(C)=CC(=C(C#N)C#N)C=C1C` the Potency was inconclusive: 2.33 µM [inhibitor, full curve, poor fit].
In the case of `O=C1NC(=O)C(=CN2CCc3ccccc32)C(=O)N1`, the “activity change, negative = inhibition” value is reported as inactive: 42.3%.
In the case of `CC(=O)Nc1ccc(C2CC(c3ccc(Cl)cc3)=NN2c2ccccc2)cc1` (stereo not drawn), the Potency is reported as active: 4.65 µM.
For `CCC(=O)N1CCc2cc(S(=O)(=O)N3CCN(c4ccccc4)CC3)ccc21`, the Potency was inconclusive: 20.8 µM [inhibitor, single point].
With `CCC(C)(C)NC(=O)C1CCN(c2nc(OC)nc(OC)n2)CC1` the Potency was inconclusive: 14.7 µM [inhibitor, single point].
With `CSc1nc(N2CCOCC2)c2c3c(sc2n1)CCCC3` the “activity change, negative = inhibition” value was inactive: 3.77%.
For `CN1C(=O)N(CC(=O)N2CCN(S(=O)(=O)c3ccc4c(c3)CCC4)CC2)C(=O)C12CCCCC2`, the “activity change, negative = inhibition” value was inactive: 35.2%.
In the case of `CS(=O)(=O)N(CCc1ccccc1)CC(=O)NCc1ccccc1`, the Potency is reported as inconclusive: 0.329 µM [inhibitor, partial curve, poor fit].
With `OCC1(Cc2ccc(F)cc2F)CCCN(CCCc2ccccc2)C1` (stereo not drawn) the Potency was inconclusive: 18.5 µM [inhibitor, single point].
For `O=C(O)c1cc(NC(=O)c2cccc(C(=O)Nc3cc(C(=O)O)cc(C(=O)O)c3)c2)cc(C(=O)O)c1`, the Potency was inconclusive: 18.5 µM [inhibitor, single point].
In the case of `Cc1ccc2cc(C#N)c(NCCNC(=S)NCCCN(C)C)nc2c1C`, the Potency is reported as inconclusive: 13.1 µM [inhibitor, single point].
In the case of `CCC(C(=O)Nc1cc(C(=O)Nc2cc(C)ccn2)ccc1Cl)c1ccccc1` (stereo not drawn), the Potency is reported as active: 8.28 µM.
For `Cn1c(CC(=O)Nc2ccccc2F)nnc1SCC(=O)NC1=NCCS1`, the “activity change, negative = inhibition” value was inactive: 37.2%.
For `CCN1CCCC1CNC(=O)CCNC(=O)c1cc(OC)c(OC)c(OC)c1` (stereo not drawn), the Potency was active: 2.62 µM.
For `CCOC(=O)Cc1nnc(NC(=O)c2ccccc2OCC)s1`, the “activity change, negative = inhibition” value was inactive: -17.1%.
For `Cc1cccc(C)c1NC(=O)C(c1ccc(Cl)cc1Cl)N1CCCCC1` (stereo not drawn), the Potency was inconclusive: 11.7 µM [inhibitor, single point].
With `COc1ccc(OCC(=O)Sc2ccc(C)cc2)cc1` the Potency was inconclusive: 0.0522 µM [inhibitor, full curve, poor fit].
For `Cc1ccc(/C=N/N(Cc2ccccc2)c2ccccc2)o1`, the Potency was inconclusive: 11.7 µM [inhibitor, single point].
For `CCOc1ccc(NS(=O)(=O)c2cc(NC(=O)c3ccc(C)cc3)ccc2Cl)cc1`, the Potency was inconclusive: 2.33 µM [inhibitor, partial curve, poor fit].
For `COc1ccc(CCNC(=O)C2CC=CCC2C(=O)O)cc1` (stereo not drawn), the Potency was inconclusive: 0.185 µM [inhibitor, full curve, poor fit].
For `O=c1cnnc(Nc2cccc(C(F)(F)F)c2)[nH]1`, the Potency was inconclusive: 8.28 µM [inhibitor, single point].
With `COc1ccc(C(=O)C2CCCN(C(=O)Cc3c(C)noc3C)C2)cc1OC` (stereo not drawn) the Potency was inconclusive: 0.185 µM [inhibitor, full curve, poor fit].
In the case of `COc1ccc(CC(=O)OCC(=O)c2c(N)n(C)c(=O)n(C)c2=O)cc1OC`, the Potency is reported as inconclusive: 11.7 µM [inhibitor, single point].
For `Cc1sc(NC(=O)c2c(F)cccc2F)nc1-c1ccccc1`, the Potency was inconclusive: 18.5 µM [inhibitor, single point].
In the case of `Cc1ccc(C2=Nc3ccccc3N=C(c3ccc([N+](=O)[O-])cc3)C2)c(O)c1`, the Potency is reported as inconclusive: 4.15 µM [inhibitor, single point].
For `CN1CCN(Cc2cc(Cl)c3cccnc3c2OC(=O)c2cccs2)CC1`, the Potency was inconclusive: 18.5 µM [inhibitor, single point].
In the case of `CCOc1cc(N2CCOCC2)c(OCC)cc1NC(=O)CSc1n[nH]c(N)n1`, the Potency is reported as inconclusive: 0.0185 µM [inhibitor, full curve, poor fit].
For `O=C(c1cc(S(=O)(=O)N2CCOCC2)ccc1F)N(Cc1nnc(-c2ccccc2Cl)o1)C1CC1`, the Potency was inconclusive: 13.1 µM [inhibitor, partial curve].
In the case of `O=C1C=C(c2ccccc2)OC(=O)C1C(=O)c1ccccc1` (stereo not drawn), the Potency is reported as inconclusive: 18.5 µM [inhibitor, partial curve, poor fit].
With `C=C(C)CN(CC)C(=O)COc1ccc(S(=O)(=O)Nc2ccc(OC)cc2)cc1` the Potency was inconclusive: 9.28 µM [inhibitor, single point].
For `CCN1CCCC1CNS(=O)(=O)c1c(C)cc(C)cc1C` (stereo not drawn), the “activity change, negative = inhibition” value was inactive: -25.1%.
In the case of `N#CC(C#N)=Cc1ccc(O)c(O)c1`, the Potency is reported as inconclusive: 12 µM [inhibitor, single point].
With `CCn1c(SCC(=O)N2CCc3ccccc3C2)nc2sc(C)c(C)c2c1=O` the “activity change, negative = inhibition” value was inactive: 55.8%.
For `COc1ccccc1C(=O)NC1CCN(C(=O)Nc2ccc(C)cc2)CC1`, the Potency was inconclusive: 8.28 µM [inhibitor, partial curve].
In the case of `COc1ccc(C(=O)N/N=C/c2ccc(N3CCOCC3)s2)cc1OC`, the Potency is reported as inconclusive: 7.38 µM [inhibitor, partial curve, poor fit].
With `C[C@H](NS(=O)(=O)c1ccc2c(c1)OCCCO2)C(=O)N1CCN(Cc2ccc(C#N)cc2)CC1` the Potency was inconclusive: 10.4 µM [inhibitor, single point].
With `CCn1ncc(Br)c1C(=O)Nc1cc(C)on1` the “activity change, negative = inhibition” value was inactive: 3.22%.
For `O=S1(=O)CC2NC(=S)N(c3cccc(Br)c3)C2C1` (stereo not drawn), the “activity change, negative = inhibition” value was inactive: 17.7%.
For `COc1ccc(CCNC(=O)C2CC(c3cccc([N+](=O)[O-])c3)=NO2)cc1` (stereo not drawn), the “activity change, negative = inhibition” value was inactive: -12.1%.
% is set by controls: 0 for no effect and ±100 for the full control effect; potency is the fitted concentration of half-maximal effect.
